Chains of the proteins cited; added tags and fusions are not shown. Lines headed by an entry give the natural chain unless they say otherwise; changes in a name come on top.
UniProt Q8BKJ9: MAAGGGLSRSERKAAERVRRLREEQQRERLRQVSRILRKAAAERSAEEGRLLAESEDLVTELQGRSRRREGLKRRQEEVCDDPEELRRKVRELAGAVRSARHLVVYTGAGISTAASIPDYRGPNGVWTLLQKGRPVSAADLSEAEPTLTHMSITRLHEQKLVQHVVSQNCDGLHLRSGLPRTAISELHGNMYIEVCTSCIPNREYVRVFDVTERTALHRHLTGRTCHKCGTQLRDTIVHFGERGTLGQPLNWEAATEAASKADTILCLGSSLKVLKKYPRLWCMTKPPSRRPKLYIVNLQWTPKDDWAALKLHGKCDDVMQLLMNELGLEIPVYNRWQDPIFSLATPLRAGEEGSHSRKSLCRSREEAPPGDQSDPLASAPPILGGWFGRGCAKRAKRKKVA
UniProt Q8VI67: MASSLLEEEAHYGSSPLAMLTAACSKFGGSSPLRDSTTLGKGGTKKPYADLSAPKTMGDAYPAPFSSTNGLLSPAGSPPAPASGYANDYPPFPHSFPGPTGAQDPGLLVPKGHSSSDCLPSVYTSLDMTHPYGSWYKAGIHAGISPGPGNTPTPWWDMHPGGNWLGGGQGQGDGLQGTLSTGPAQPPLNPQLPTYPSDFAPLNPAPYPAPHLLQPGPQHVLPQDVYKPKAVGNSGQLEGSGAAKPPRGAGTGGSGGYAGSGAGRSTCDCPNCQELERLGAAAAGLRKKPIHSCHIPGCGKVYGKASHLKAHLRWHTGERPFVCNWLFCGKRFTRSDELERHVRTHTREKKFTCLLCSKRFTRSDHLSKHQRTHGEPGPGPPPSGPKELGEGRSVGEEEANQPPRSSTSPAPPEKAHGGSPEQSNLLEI

In article PMC6053369:

Target: Halo-SIRT7-FLAG (UniProt Q8BKJ9)
Assay: pull-down; HaloTag pull-down: Halo fusion proteins (30 ug) immobilised on HaloLink Resin, incubated with 500 ug lysate of transfected HEK293T cells in pull-down buffer (10 mM Tris-HCl pH 7.4, 150 mM NaCl, 1% NP-40, 10 mM NaF, 10 mM Na4P2O7), overnight at 4 C, five washes; western blot; only the target …

binding: binds weakly
Substance: GAL4DBD-OSX N-terminal transactivation domain (27-192) (from UniProt Q8VI67) (domain or fragment)

These are yes or no findings as the source states them, for the method shown. Binding seen in cells or lysates may run through a third protein. Binding calls can cover weak binding; strength is not graded here.
